Consider 57 molecules from article PMC12670160, “A drug-repurposing screen of FDA- and EMA-approved drugs identifies two NF-κB inhibitors active against eumycetoma” (Journal of Antimicrobial Chemotherapy, 2025).

Counter-ions that a name gives are not always drawn. Like-named read-outs stand apart in the source and are kept apart here. Screen size: about 5,300 compounds; about 130 (2.5%) showed an effect of 50% or more. This is one part of the list.

This assay has as its system M. mycetomatis strain mm55. The conditions noted are these: primary screen, metabolic activity vs growth control, 96 h, 2 µM, inhibitor.

Take `CO/N=C(\C(=O)N[C@@H]1C(=O)N2C(C(=O)OCOC(=O)C(C)(C)C)=C(/C=C\c3scnc3C)CS[C@H]12)c1csc(N)n1` [ONC0004007, cefditorin pivoxil]: the “% viability” value is on record as 66.26%.
The same measure, in the same setting: under `c1ccc2c(Cc3c[nH]c4ccccc34)c[nH]c2c1` [ONC0003447, diindolylmethane] stands 68.22%; under `COc1ccc(OC)c2c(=S)c3ccccc3[nH]c12` [ONC0001744, nsc625987], 58.92%; under `Cc1sc(N)c(C(=O)c2cccc(C(F)(F)F)c2)c1C` [ONC0001564, pd81723], 126%.
Take `COC(=O)Nc1nc2ccc(C(=O)c3ccccc3)cc2[nH]1` [ONC0000696, mebendazole]: the “% viability” value amounted to 123.4%.
Consider `CC(C)CCC[C@@H](C)[C@H]1CC[C@H]2[C@@H]3CCC4=CC(=NO)CC[C@]4(C)[C@H]3CC[C@]12C` [ONC0001049, olesoxime], for which the “% viability” value is 89.58%.
For `O=c1[nH]ccc2cc(OC3CCNCC3)ccc12` [ONC0001198, sar407899 hydrochloride], the “% viability” value worked out at 94.6%.
Turning to `Cc1[nH]c2ccccc2c1CCNC(=O)c1cccs1` [ONC0005173, ck636], the “% viability” value is 145.2%.
On to `N=C(N)SCCc1ccc(OCc2ccc([N+](=O)[O-])cc2)cc1` [ONC0000862, kbr7943], for which the “% viability” value is listed as 96%.
For the molecule `Cn1c(NCCN(CCO)CCCc2ccc([N+](=O)[O-])cc2)cc(=O)n(C)c1=O` [ONC0002304, nifekalant], the “% viability” value is recorded as 75.97%.
On to `N=C(N)c1ccc(OCCCCCOc2ccc(C(=N)N)cc2)cc1` [ONC0003359, pentamidine isethionate], for which the “% viability” value worked out at 71.33%.
`O=C(OC[C@H]1O[C@@H](OC(=O)c2cc(O)c(O)c(OC(=O)c3cc(O)c(O)c(O)c3)c2)[C@H](OC(=O)c2cc(O)c(O)c(OC(=O)c3cc(O)c(O)c(O)c3)c2)[C@@H](OC(=O)c2cc(O)c(O)c(OC(=O)c3cc(O)c(O)c(O)c3)c2)[C@@H]1OC(=O)c1cc(O)c(O)c(OC(=O)c2cc(O)c(O)c(O)c2)c1)c1cc(O)c(O)c(OC(=O)c2cc(O)c(O)c(O)c2)c1` [ONC0002461, tannic acid]: the “% viability” value is recorded as 87.42%.
Take `N[C@@H]1C[C@H]1c1ccccc1` (racemic) [ONC0000562, tranylcypromine sulfate]: the “% viability” value is given as 104.4%.
Turning to `CC(C)Cc1ccc(C(C)C(=O)NCCO)cc1` (stereo not drawn) [ONC0003533, mabuprofen], the “% viability” value was determined as 118.1%.
For the molecule `CCCCC(=O)O[C@H]1CC[C@H]2[C@@H]3CCc4cc(O)ccc4[C@H]3CC[C@]12C` [ONC0000727, estradiol valerate], the “% viability” value turned out to be 49.76%.
Take `N=C(N)NCCNS(=O)(=O)c1cccc2cnccc12` [ONC0005629, ha1004hcl]: the “% viability” value is on record as 74.09%.
`O=C1OC2(c3cc(I)c(O)c(I)c3Oc3c2cc(I)c(O)c3I)c2c(Cl)c(Cl)c(Cl)c(Cl)c21` [ONC0002798, rose bengal sodium salt]: the “% viability” value (Madurella mycetomatis metabolic activity at 2µM (%)) came to 83.07%.
Turning to `O=C(NC1CCNCC1)[C@@H]1CC[C@@H]2CN1C(=O)N2OS(=O)(=O)O` [ONC0001257, relebactam], the “% viability” value amounted to 62.24%.
Still for that read-out and setting: under `NC(N)=Nc1nc(CSCCN/C=N/S(=O)(=O)c2ccc(Br)cc2)cs1` [ONC0001324, ebrotidine] stands 88.15%; under `CCc1ccc(C2=CC(C)(C)Sc3ccc(C#Cc4ccc(C(=O)O)cc4)cc32)cc1` [ONC0001310, agn 194310], 93.65%.
Regarding `NC(=NCc1ccccc1)NC(=O)c1nc(Cl)c(N)nc1N` [ONC0005575, benzamil hcl], the “% viability” value is reported as 53.65%.
For the molecule `Cc1ccc(Nc2c(F)cccc2Cl)c(CC(=O)O)c1` [ONC0004767, lumiracoxib cox189], the “% viability” value stood at 100.2%.
Still for that read-out and setting: under `O=C(O)c1cc(O)c2c(c1)C(=O)c1cccc(O)c1C2=O` [ONC0004645, rheic acid] stands 83.66%.
Turning to `CN1CCc2c(c3ccccc3n2Cc2ccccc2)C1` [ONC0002361, mebhydrolin], the “% viability” value turned out to be 82.22%.
With `Fc1ccc(C(c2ccc(F)cc2)N2CCN(C/C=C/c3ccccc3)CC2)cc1` [ONC0004452, flunarizine], the “% viability” value turned out to be 108.3%.
Turning to `Oc1ccc([C@H]2COc3cc(O)ccc3C2)cc1` [ONC0004406, equol], the “% viability” value is given as 119.9%.
Take `O=c1cc(-c2cccc3c2Sc2ccccc2S3)oc(N2CCOCC2)c1` [ONC0000134, ku55933]: the “% viability” value is on record as 87.24%.
For `c1ccc(CNCc2ccc(CN3CCCNCCNCCCNCC3)cc2)nc1` [ONC0001477, amd3465], the “% viability” value worked out at 65.25%.
`C[C@H](c1ccc2ccc(O[C@H]3CC[C@@H](C(F)(F)F)CC3)c(C(F)(F)F)c2c1)N1C2CCC1CC(C(=O)O)C2` (stereo partly drawn) [ONC0002093, autotaxin modulator 1]: the “% viability” value was determined as 88%.
As for `Cc1ncc(CNC(=O)N(CCCl)N=O)c(N)n1` [ONC0005389, nimustine], the “% viability” value is on record as 105.1%.
`Cn1nnc(-c2ccc(-c3ccc(N4C[C@H](COP(=O)(O)O)OC4=O)cc3F)cn2)n1` [ONC0001833, tedizolid phosphate]: the “% viability” value is 90.42%.
Regarding `Oc1cccc(-c2c3nc(c(-c4cccc(O)c4)c4ccc([nH]4)c(-c4cccc(O)c4)c4nc(c(-c5cccc(O)c5)c5ccc2[nH]5)CC4)C=C3)c1` [ONC0001003, temoporfin], the “% viability” value is recorded as 75.19%.
For the molecule `Cc1cccc(C(=O)O)c1O` [ONC0003270, hydroxytoluic acid], the “% viability” value is on record as 66.55%.
As for `Cc1ccc2c(Br)cc(Br)c(OC(=O)c3ccccc3)c2n1` [Broxaldine], the “% viability” value is listed as 3.407%.
As to `NCCNC(=O)c1ccc(Cl)cn1` [ONC0003049, lazabemide], the “% viability” value came out at 116.4%.
Consider `Cc1cc2c(N3CCCC3)nc(N3CCCC3)nc2n1C` [ONC0003662, pnu89843], for which the “% viability” value was 57.55%.
Consider `O=C(O)[C@H](O)[C@@H](O)[C@H](O)[C@H](O)C(O)CO` (stereo partly drawn) [ONC0002756, sodium glucoheptonate dihydrate], for which the “% viability” value is 84.97%.
With `O=C(Nc1ccc(Cl)nc1)c1ccc(Cl)cc1` [ONC0002468, ica110381], the “% viability” value was 70.91%.
For the molecule `NC1=N[C@H]2[C@H](CCCCC(=O)O)SC[C@H]2N1` [ONC0003635, 2iminobiotin], the “% viability” value is given as 86.51%.
Still for that read-out and setting: as for `N=C(N)NC(=N)Nc1ccccc1` [ONC0000154, 1phenylbiguanide], the figure is 91.38%.
For `CCc1nc2ccc(Cl)cn2c1C(=O)NCc1ccc(N2CCC(c3ccc(OC(F)(F)F)cc3)CC2)cc1` [ONC0003730, q203], the “% viability” value was determined as 122.5%.
`Cc1cc(C(=O)NOCCO)c(Nc2ccc(I)cc2F)n(C)c1=O` [ONC0005274, azd8330]: the “% viability” value is given as 176.6%.
Turning to `CCOC(=O)C1=C(N)Oc2ccc(Br)cc2[C@H]1[C@H](C#N)C(=O)OCC` [ONC0004730, ha141], the “% viability” value amounted to 132.5%.
Still for that read-out and setting: as for `Cn1cnc2c(NCc3ccccc3)nc(NCCO)nc21` [ONC0001590, olomoucine], the figure is 82.51%.
For `CC1(C)S[C@@H]2[C@H](NC(=O)[C@H](N)c3ccc(O)cc3)C(=O)N2[C@H]1C(=O)O` [ONC0003222, amoxicillin], the “% viability” value is reported as 90.48%.
On to `CC(C)N1Cc2cc(S(C)(=O)=O)ccc2N(CCN2CC=C(c3c[nH]c4cc(F)ccc34)CC2)S1(=O)=O` [ONC0002623, ly393558], for which the “% viability” value stood at 70.5%.
Take `COc1cccc2c1C(=O)c1c(O)c3c(c(O)c1C2=O)C[C@@](O)(C(=O)CO)C[C@@H]3O[C@H]1C[C@H](N)[C@H](O)[C@H](C)O1` [ONC0000085, doxorubicin]: the “% viability” value was 96.01%.
On to `O=C(c1c2ccccc2cc2ccccc12)N1CCC(N2CCC[C@@H](C(=O)N3CCOCC3)C2)CC1` [ONC0004304, cp640186 hydrochloride], for which the “% viability” value was found to be 72.72%.
Take `OCCOCCN1CCN(C2=Nc3ccccc3Sc3ccccc32)CC1` [ONC0005533, quetiapine fumarate]: the “% viability” value is recorded as 98.85%.
Regarding `Cc1nc(Nc2cnn(C3CCNCC3)c2)nc2c1N(C)C(=O)c1cc3ccccc3cc1N2C` [ONC0003623, hth01015], the “% viability” value was determined as 63.72%.
On to `Cc1c(N)nc([C@H](CC(N)=O)NC[C@H](N)C(N)=O)nc1C(=O)N[C@H](C(=O)N[C@H](C)[C@@H](O)[C@H](C)C(=O)N[C@H](C(=O)NCCc1nc(-c2nc(C(=O)NCCC[S+](C)C)cs2)cs1)[C@@H](C)O)[C@@H](O[C@@H]1O[C@@H](CO)[C@@H](O)[C@H](O)[C@@H]1O[C@H]1O[C@H](CO)[C@@H](O)[C@H](OC(N)=O)[C@@H]1O)c1c[nH]cn1` [ONC0004316, bleomycin sulfate], for which the “% viability” value worked out at 4.137%.
On to `Nc1nc2c(ncn2[C@@H]2O[C@H](CO)[C@@H](O)[C@H]2O)c(=O)[nH]1` [ONC0005019, guanosine], for which the “% viability” value is 116.9%.
`Oc1cccc2cccnc12` [ONC0000590, oxyquinoline hemisulfate]: the “% viability” value was determined as 81.18%.
As for `C[C@H]1O[C@H](O[C@H]2[C@H](O)[C@@H](O)[C@@H](O[C@H]3[C@H](O)[C@@H](O)[C@H](O)O[C@@H]3CO)O[C@@H]2CO)[C@H](O)[C@@H](O)[C@@H]1N[C@H]1C=C(CO)[C@@H](O)[C@H](O)[C@H]1O` [ONC0004258, acarbose], the “% viability” value is reported as 73.72%.
Turning to `Cc1cc2c(cc1S(N)(=O)=O)S(=O)(=O)CCC2` [ONC0005435, meticrane], the “% viability” value worked out at 136.3%.
As to `COCCOc1cnc2ccn([C@H](C)c3nnc4c(F)cc(-c5cnn(C)c5)cn34)c(=O)c2c1` [ONC0001822, amg337], the “% viability” value was determined as 106.7%.
Regarding `CC(CCC(=O)O)[C@H]1CCC2C3C(=O)C[C@@H]4CC(=O)CC[C@]4(C)C3CC(=O)[C@@]21C` (stereo partly drawn) [ONC0003216, dehydrocholic acid], the “% viability” value came out at 99.22%.
